The other results are listed elsewhere or left out.
Legend:
Experiment in all cases: glycan array binding signal (z-score within array); higher = stronger binding
Details in all cases: glycan notation: IUPAC condensed, linker removed
[1] = target: Neu5Ac(a2-3)Gal(b1-3)]Neu5Ac(a2-3)Gal(b1-4)]GlcNAc
Outline: (§1)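 Arrays were curated from the Consortium for Functional Glycomics database, 3228 in total, and kept only where the protein sequence was available. Binding is expressed as a within-array Z-score. This score was averaged across arrays of the same protein sequence at different concentrations or buffers and across linkers, and negative values can be read as non-binding.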

[2] = target: Neu5Ac(a2-3)Gal(b1-4)Glc
Outline: as §1

[3] = target: Neu5Ac(a2-3)Gal(b1-4)GlcNAc
Outline: as §1

[4] = target: Neu5Ac(a2-3)Gal(b1-4)GlcNAc(b1-2)Man
Outline: as §1

[5] = target: Neu5Ac(a2-3)Gal(b1-4)GlcNAc(b1-2)Man(a1-3)[GlcNAc(b1-4)][Neu5Ac(a2-3)Gal(b1-4)GlcNAc(b1-2)Man(a1-6)]Man(b1-4)GlcNAc(b1-4)GlcNAc
Outline: as §1

[6] = target: Neu5Ac(a2-3)Gal(b1-4)GlcNAc(b1-2)Man(a1-3)[Neu5Ac(a2-3)Gal(b1-4)GlcNAc(b1-2)Man(a1-6)]Man(b1-4)GlcNAc(b1-4)GlcNAc
Outline: as §1

[7] = target: Neu5Ac(a2-3)Gal(b1-4)GlcNAc(b1-2)Man(a1-3)[Neu5Ac(a2-3)Gal(b1-4)GlcNAc(b1-2)Man(a1-6)]Man(b1-4)GlcNAc(b1-4)[Fuc(a1-6)]GlcNAc
Outline: as §1

[8] = target: Neu5Ac(a2-3)Gal(b1-4)GlcNAc(b1-2)Man(a1-3)[Neu5Ac(a2-6)Gal(b1-4)GlcNAc(b1-2)Man(a1-6)]Man(b1-4)GlcNAc(b1-4)GlcNAc
Outline: as §1

[9] = target: Neu5Ac(a2-3)Gal(b1-4)GlcNAc(b1-2)[Neu5Ac(a2-3)Gal(b1-4)GlcNAc(b1-4)]Man(a1-3)[GlcNAc(b1-4)][Neu5Ac(a2-3)Gal(b1-4)GlcNAc(b1-2)[Neu5Ac(a2-3)Gal(b1-4)GlcNAc(b1-6)]Man(a1-6)]Man(b1-4)GlcNAc(b1-4)GlcNAc
Outline: as §1

[10] = target: Neu5Ac(a2-3)Gal(b1-4)GlcNAc(b1-2)[Neu5Ac(a2-3)Gal(b1-4)GlcNAc(b1-4)]Man(a1-3)[GlcNAc(b1-4)][Neu5Ac(a2-3)Gal(b1-4)GlcNAc(b1-4)Man(a1-6)]Man(b1-4)GlcNAc(b1-4)GlcNAc
Outline: as §1

[11] = target: Neu5Ac(a2-3)Gal(b1-4)GlcNAc(b1-2)[Neu5Ac(a2-3)Gal(b1-4)GlcNAc(b1-6)]Man(a1-6)[Neu5Ac(a2-3)Gal(b1-4)GlcNAc(b1-2)Man(a1-3)][GlcNAc(b1-4)]Man(b1-4)GlcNAc(b1-4)GlcNAc
Outline: as §1

[12] = target: Neu5Ac(a2-3)Gal(b1-4)GlcNAc(b1-3)Gal
Outline: as §1

[13] = target: Neu5Ac(a2-3)Gal(b1-4)GlcNAc(b1-3)Gal(b1-3)GlcNAc
Outline: as §1

[14] = target: Neu5Ac(a2-3)Gal(b1-4)GlcNAc(b1-3)Gal(b1-4)GlcNAc
Outline: as §1

[15] = target: Neu5Ac(a2-3)Gal(b1-4)GlcNAc(b1-3)Gal(b1-4)GlcNAc(b1-2)Man(a1-3)[Neu5Ac(a2-3)Gal(b1-4)GlcNAc(b1-3)Gal(b1-4)GlcNAc(b1-2)Man(a1-6)]Man(b1-4)GlcNAc(b1-4)GlcNAc
Outline: as §1

[16] = target: Neu5Ac(a2-3)Gal(b1-4)GlcNAc(b1-3)Gal(b1-4)GlcNAc(b1-3)Gal(b1-4)GlcNAc
Outline: as §1

[17] = target: Neu5Ac(a2-3)Gal(b1-4)GlcNAc(b1-3)Gal(b1-4)GlcNAc(b1-3)Gal(b1-4)GlcNAc(b1-2)Man(a1-3)[Neu5Ac(a2-3)Gal(b1-4)GlcNAc(b1-3)Gal(b1-4)GlcNAc(b1-3)Gal(b1-4)GlcNAc(b1-2)Man(a1-6)]GalNAc
Outline: as §1

[18] = target: Neu5Ac(a2-3)Gal(b1-4)GlcNAc(b1-3)Gal(b1-4)GlcNAc(b1-3)GalNAc
Outline: as §1

[19] = target: Neu5Ac(a2-3)Gal(b1-4)GlcNAc(b1-3)Gal(b1-4)GlcNAc(b1-3)[Neu5Ac(a2-3)Gal(b1-4)GlcNAc(b1-3)Gal(b1-4)GlcNAc(b1-6)]GalNAc
Outline: as §1

[20] = target: Neu5Ac(a2-3)Gal(b1-4)GlcNAc(b1-3)Gal(b1-4)GlcNAc(b1-6)[Gal(b1-3)]GalNAc
Outline: as §1

[21] = target: Neu5Ac(a2-3)Gal(b1-4)GlcNAc(b1-3)Gal(b1-4)[Fuc(a1-3)]GlcNAc
Outline: as §1

[22] = target: Neu5Ac(a2-3)Gal(b1-4)GlcNAc(b1-3)GalNAc
Outline: as §1

[23] = target: Neu5Ac(a2-3)Gal(b1-4)GlcNAc(b1-3)[Neu5Ac(a2-3)Gal(b1-4)GlcNAc(b1-6)]GalNAc
Outline: as §1

[24] = target: Neu5Ac(a2-3)Gal(b1-4)GlcNAc(b1-6)GalNAc
Outline: as §1

[25] = target: Neu5Ac(a2-3)Gal(b1-4)GlcNAc(b1-6)[Gal(b1-3)]GalNAc
Outline: as §1

[26] = target: Neu5Ac(a2-3)Gal(b1-4)GlcNAc(b1-6)[Neu5Ac(a2-3)Gal(b1-3)]GalNAc
Outline: as §1

[27] = target: Neu5Ac(a2-3)Gal(b1-4)GlcNAc6S
Outline: as §1

[28] = target: Neu5Ac(a2-3)Gal(b1-4)[Fuc(a1-3)]GlcNAc
Outline: as §1

[29] = target: Neu5Ac(a2-3)Gal(b1-4)[Fuc(a1-3)]GlcNAc(b1-2)Man
Outline: as §1

[30] = target: Neu5Ac(a2-3)Gal(b1-4)[Fuc(a1-3)]GlcNAc(b1-3)Gal
Outline: as §1

[31] = target: Neu5Ac(a2-3)Gal(b1-4)[Fuc(a1-3)]GlcNAc(b1-3)Gal(b1-4)GlcNAc
Outline: as §1

[32] = target: Neu5Ac(a2-3)Gal(b1-4)[Fuc(a1-3)]GlcNAc(b1-3)Gal(b1-4)[Fuc(a1-3)]GlcNAc(b1-3)Gal(b1-4)[Fuc(a1-3)]GlcNAc
Outline: as §1

[33] = target: Neu5Ac(a2-3)Gal(b1-4)[Fuc(a1-3)]GlcNAc(b1-3)GalNAc
Outline: as §1

[34] = target: Neu5Ac(a2-3)Gal(b1-4)[Fuc(a1-3)]GlcNAc(b1-6)[Gal(b1-3)]GalNAc
Outline: as §1

[35] = target: Neu5Ac(a2-3)Gal(b1-4)[Fuc(a1-3)]GlcNAc(b1-6)[Neu5Ac(a2-3)Gal(b1-3)]GalNAc
Outline: as §1

[36] = target: Neu5Ac(a2-3)Gal(b1-4)[Fuc(a1-3)]GlcNAc6S
Outline: as §1

[37] = target: Neu5Ac(a2-3)Gal6S(b1-4)GlcNAc
Outline: as §1

[38] = target: Neu5Ac(a2-3)Gal6S(b1-4)[Fuc(a1-3)]GlcNAc
Outline: as §1

B1: EUL D1A (Oryza sativa) (protein)
chain: MFGFGHHHNQAPAAPSDPNQIFKIFCRANENYCLTVRDSAVVLAPVNPKDEHQHWFKDMRFSTKVKDGEGMPAFALVNKATGLAVKHSLGQSHPVKLVPFNPEYEDASVLWTESKDVGKGFRCIRMVNNTRLNLDAFHGDKDHGGVRDGTTVVLWEWCKGDNQSWKILPWGPEAHSSSPGAATACTIGGVPVHTVRVFSAAGEDYCLTVRNGTACLAPKNPRDDYQHWIKDMRHSNKIRDEEGYPAFALVNKVTGEAIKHSTGQGHPVKLVPYNPEYQDESVLWTESKDVGKGFRCIRMVNNIYLNFDAFHGDKDHGGIHDGTEIVLWKWCEGDNQRWKILPWILEQKLISEEDLNSAVDHHHHHH
[1]
  glycan array binding signal (z-score): -0.124
[2]
  glycan array binding signal (z-score): 0.016
[3]
  glycan array binding signal (z-score): 0.048
[4]
  glycan array binding signal (z-score): -0.333
[5]
  glycan array binding signal (z-score): 0.87
[6]
  glycan array binding signal (z-score): -0.59
[7]
  glycan array binding signal (z-score): 0.798
[8]
  glycan array binding signal (z-score): -0.359
[9]
  glycan array binding signal (z-score): 0.778
[10]
  glycan array binding signal (z-score): -1.49
[11]
  glycan array binding signal (z-score): -0.806
[12]
  glycan array binding signal (z-score): 0.074
[13]
  glycan array binding signal (z-score): -0.328
[14]
  glycan array binding signal (z-score): -0.613
[15]
  glycan array binding signal (z-score): -1.23
[16]
  glycan array binding signal (z-score): -0.439
[17]
  glycan array binding signal (z-score): 0.688
[18]
  glycan array binding signal (z-score): -0.895
[19]
  glycan array binding signal (z-score): 0.916
[20]
  glycan array binding signal (z-score): -0.261
[21]
  glycan array binding signal (z-score): -0.691
[22]
  glycan array binding signal (z-score): -1.32
[23]
  glycan array binding signal (z-score): -1.07
[24]
  glycan array binding signal (z-score): -0.547
[25]
  glycan array binding signal (z-score): -0.521
[26]
  glycan array binding signal (z-score): 2.69
[27]
  glycan array binding signal (z-score): -0.182
[28]
  glycan array binding signal (z-score): -0.398
[29]
  glycan array binding signal (z-score): -1.12
[30]
  glycan array binding signal (z-score): -0.856
[31]
  glycan array binding signal (z-score): -1.22
[32]
  glycan array binding signal (z-score): -0.352
[33]
  glycan array binding signal (z-score): 1.45
[34]
  glycan array binding signal (z-score): 1.33
[35]
  glycan array binding signal (z-score): 0.616
[36]
  glycan array binding signal (z-score): -1.43
[37]
  glycan array binding signal (z-score): -0.975
[38]
  glycan array binding signal (z-score): -0.714
